Reference: PubChem BioAssay AID1259331 (Drosophila RNAi Screening Center, 2017)
Test: 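Fly transmembrane-protein genes that affect zinc toxicity in cultured cells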 (primary screen). Cells: Drosophila S2R+ cells. Reagent: long dsRNA against Drosophila genes. Duration: 5 days (4 days knock-down, then 1 day zinc). Conditions: zinc chloride at 15 mM final level for 1 day. Measured: 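Total cellular ATP measured by luciferase luminescence as a viability proxy, turned into Z scores from three plate copies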. Reading the numbers: mean Z score: higher = more ATP than other wells, better survival under zinc; ATP luminescence: higher = more ATP, more viable cells. Active means: 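Hit when the absolute Z score is greater than 1.5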. Calls: active = hit, ATP up or down; inactive = not a hit.
In all, the deposit lists about 3,100 reagents; below is a random part of them. Of all reagents, 126 (4.1%) are marked active. 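Calls are per reagent; zinc was so toxic that few knock-downs lowered ATP further, so most hits raise ATP.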 The raw values are shown without normalisation. Unmarked entries are inactive. The record does not give: the amount of reagent.

| Target gene | dsRNA | mean Z score | ATP luminescence, replicate 1 | ATP luminescence, replicate 2 |
| --- | --- | --- | --- | --- |
| CG8468 | DRSC07190 | -0.241 | 68881 | 66943 |
| CG8468 | DRSC26347 | 0.261 | 57768 | 56619 |
| Gp210 | DRSC04861 | 0.492 | 1.43e5 | 65279 |
| Gp210 | DRSC39541 | 0 | 48234 | 55556 |
| CG7227 | DRSC03032 | 0.714 | 62604 | 70219 |
| CG7227 | DRSC39466 | -0.0187 | 51869 | 47309 |
| Ptp99A | DRSC14320 | 0.342 | 71865 | 71574 |
| Ptp99A | DRSC16803 | -0.131 | 40468 | 41839 |
| Ptp99A | DRSC22477 | -0.699 | 41102 | 43725 |
| Ptp99A | DRSC23033 | -0.0371 | 46194 | 46760 |
| Ptp99A | DRSC37009 | -0.298 | 46674 | 43211 |
| btl | DRSC11331 | -0.369 | 68676 | 53797 |
| btl | DRSC36653 | 0.777 | 46057 | 78534 |
| btl | DRSC36654 | -0.108 | 50172 | 42435 |
| Afg3l2 | DRSC10657 | -0.735 | 23751 | 26002 |
| Afg3l2 | DRSC29981 | -0.0656 | 48063 | 45068 |
| CCKLR-17D3 | DRSC20017 | -0.888 | 32444 | 35599 |
| CCKLR-17D3 | DRSC23715 | -0.648 | 50875 | 49692 |
| shg | DRSC04714 | -0.748 | 26890 | 26496 |
| shg | DRSC38948 | -0.169 | 42002 | 48114 |
| rho-4 | DRSC19761 | -0.749 | 35222 | 38897 |
| rho-4 | DRSC19762 | 0.533 | 73460 | 76359 |
| Zip42C.1 | DRSC05003 | -0.232 | 88572 | 67303 |
| Grl40a | DRSC03677 | -0.247 | 37605 | 44634 |
| Grl40a | DRSC39639 | -0.067 | 61123 | 55702 |
| CG15923 | DRSC15129 | 4.23 (active) | 99311 | 91214 |
| sbm | DRSC20185 | 0.654 | 78672 | 75072 |
| tkv | DRSC03623 | -0.277 | 48791 | 56053 |
| tkv | DRSC22606 | 0.349 | 51372 | 55350 |
| tkv | DRSC25957 | -0.103 | 54663 | 52116 |
| Scgalpha | DRSC03076 | -0.0169 | 46828 | 45800 |
| Scgalpha | DRSC29625 | -0.221 | 67715 | 48080 |
| CG33124 | DRSC00298 | -0.295 | 38496 | 45971 |
| CG15814 | DRSC19730 | 0.759 | 55556 | 54682 |
| CG15814 | DRSC39869 | -0.47 | 50549 | 51926 |
| Osi22 | DRSC16442 | 0.00481 | 33713 | 58540 |
| Osi22 | DRSC27176 | -0.36 | 52127 | 55642 |
| CG34109 | DRSC02225 | 1.76 (active) | 78589 | 58109 |
| CG34109 | DRSC26977 | 0.0479 | 61404 | 56208 |
| CG34109 | DRSC30104 | 0.86 | 60742 | 58043 |
| CG8405 | DRSC07166 | -0.439 | 63256 | 65434 |
| CG8405 | DRSC39857 | -1.07 | 39786 | 44236 |
| Tsp33B | DRSC02418 | -0.511 | 41309 | 37245 |
| Tsp33B | DRSC28982 | -0.888 | 53361 | 41933 |
| CG44153 | DRSC02228 | 0.33 | 55865 | 66199 |
| CG44153 | DRSC02902 | 0.259 | 52047 | 38839 |
| CG44153 | DRSC02903 | 0.135 | 75210 | 62278 |
| Picot | DRSC07508 | 0.14 | 32376 | 33015 |
| Picot | DRSC24256 | -0.0139 | 53516 | 58386 |
| Osi6 | DRSC12128 | 1.26 | 1.01e5 | 79071 |
| Osi6 | DRSC25935 | 2.38 (active) | 94233 | 91351 |
| Toll-6 | DRSC11304 | -0.0123 | 73752 | 62024 |
| Toll-6 | DRSC39854 | 0.161 | 59912 | 56984 |
| T48 | DRSC16878 | 0.336 | 70767 | 72500 |
| CG6230 | DRSC01989 | -0.492 | 49486 | 49057 |
| sdk | DRSC18831 | -0.379 | 40201 | 42643 |
| sdk | DRSC39522 | 0.0353 | 49588 | 52879 |
| Osi10b | DRSC12279 | -0.0308 | 77834 | 60152 |
| Osi10b | DRSC39619 | 0.0785 | 66649 | 57271 |
| CG32645 | DRSC19683 | 0.505 | 78074 | 70682 |
| CG32645 | DRSC19889 | 0.319 | 68384 | 74358 |
| CG6231 | DRSC15997 | -0.655 | 35376 | 45916 |
| CG30265 | DRSC21592 | 0.342 | 52504 | 52220 |
| Gr98c | DRSC26546 | 0.216 | 68126 | 56465 |
| Gr98c | DRSC39650 | -0.325 | 52984 | 59071 |
| CG14778 | DRSC17953 | -0.766 | 51578 | 55145 |
| CG14778 | DRSC39900 | -0.246 | 53241 | 58746 |
| SIFaR | DRSC13467 | 0.515 | 38393 | 69601 |
| SIFaR | DRSC14266 | -0.179 | 36387 | 55251 |

11 of these entries, reformatted.
Scgalpha [DRSC29625] | mean Z score: -0.221; ATP luminescence, replicate 1: 67715; ATP luminescence, replicate 2: 48080
CG33124 [DRSC00298] | mean Z score: -0.295; ATP luminescence, replicate 1: 38496; ATP luminescence, replicate 2: 45971
CG15814 [DRSC19730] | mean Z score: 0.759; ATP luminescence, replicate 1: 55556; ATP luminescence, replicate 2: 54682
CG15814 [DRSC39869] | mean Z score: -0.47; ATP luminescence, replicate 1: 50549; ATP luminescence, replicate 2: 51926
Osi22 [DRSC16442] | mean Z score: 0.00481; ATP luminescence, replicate 1: 33713; ATP luminescence, replicate 2: 58540
Osi22 [DRSC27176] | mean Z score: -0.36; ATP luminescence, replicate 1: 52127; ATP luminescence, replicate 2: 55642
CG34109 [DRSC02225] | mean Z score: 1.76 (active); ATP luminescence, replicate 1: 78589; ATP luminescence, replicate 2: 58109
CG34109 [DRSC26977] | mean Z score: 0.0479; ATP luminescence, replicate 1: 61404; ATP luminescence, replicate 2: 56208
CG34109 [DRSC30104] | mean Z score: 0.86; ATP luminescence, replicate 1: 60742; ATP luminescence, replicate 2: 58043
CG8405 [DRSC07166] | mean Z score: -0.439; ATP luminescence, replicate 1: 63256; ATP luminescence, replicate 2: 65434
CG8405 [DRSC39857] | mean Z score: -1.07; ATP luminescence, replicate 1: 39786; ATP luminescence, replicate 2: 44236
